The source of these data is article PMC5748679.

Construct, isoform or probe ends are uncertain for at least one entry. Negatives hold for the conditions tested. Tags and fusion partners may be left off the protein sequences shown.

In this data set the test system is T1, NsrRTh.
T1 sequence (looked up, limits assumed): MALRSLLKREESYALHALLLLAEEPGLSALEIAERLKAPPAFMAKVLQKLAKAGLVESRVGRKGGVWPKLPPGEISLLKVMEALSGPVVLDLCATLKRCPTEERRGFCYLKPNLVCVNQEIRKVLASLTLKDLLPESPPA
Kind of data set: EMSA. To be noted: 20 mM HEPES pH 6.9, 50 mM NaCl, 0.1 mg/mL BSA, 5 mM beta-mercaptoethanol, 0.5 ug poly(dI-dC), 25-50 nM DNA, 10 min at 60 C, 6% PAGE at room temperature, recombinant protein, protein details: C-terminal His (pET22b). Background: In EMSA bound probe runs differently from free probe, usually more slowly.

[1] abbreviates: 500 nM protein, 50 nM DNA, label: DY782 5' on reverse strand, probe letters rebuilt from the primers and the genome.

In the case of “AAAATCTAGACTTGGGCCACACCCCTCCTTTCCGCCCCACGCGGCTTTCCACAAGGCCCGCCTTGGCGAGCTTCTGGAGCACCTTGGCCATGAAGGCGGGCGGGGCCTTGAGCCTCTCGGCGATCTCCAAGGCGGAAAGGCCGGGCTCCTCGGCCAAGAGGAGAAGGGCGTGAAGGGCGTAGGACTCCTCCCGCTTTAGAAGGCTCCGAAGGGCCATGGCCCCATGCTAACCCCAGGCGTAGAAGGTCCGCGGAGGCCCAAGGGACGTTCGCCCTTGACCTAGGTCATGGAAAAAGGGAGGGAAGGGTCGGAGTTTATGAGCCGGAGGTGAAAGGAGGGTAAGCATATGTTTT (double strand) [PnorC353]”, the binding result reads like this: under setting [1], “binds”; (with NsrS (no effect on binding), label: DY782 5' on reverse strand, probe letters rebuilt from the primers and the genome) “binds”; (with NsrS and NsrT (no effect on binding), label: DY782 5' on reverse strand, probe letters rebuilt from the primers and the genome) “binds”; (with NsrT (no effect on binding), label: DY782 5' on reverse strand, probe letters rebuilt from the primers and the genome) “binds”.
For “GGAAGGGTCGGAGTTTATGAGCCGGAGGTGAAAGGAGGGTAAG (double strand) [PnorC -51]”, the binding result (500 nM protein, 50 nM DNA) is reported as “no binding”.
For the sequence “AAAAAGGGAAGGAAGGGTCGGAGTTTATGAGCCGGAGGTGAAAGGAGGGTAAG (double strand) [PnorC -56]”, where the note is “500 nM protein, 50 nM DNA”, the binding result is “no binding”.
Consider “AAAACATATGGTTATCCTCCAAGCGGGTGGGGGCGCGTTTCCATGACCGGGGTCAAGGGGCCGGGGACGGACCCCGGCCCCCAGGGCCTCAGTAGATGTCGTGGGCGGTGTTGTAGACGTTGAACTTGCCCGTGGGCGTGCGCACCCAGTCCCCGGTGATCCGGGCCTTTTCCTTGAGGGTCAGGGCGTCGTAGACCACGATGAAGGTGGGCGTATCCTTGCTCCCCCAGGCGGAAACCCAGATCTCCGTGCCCCCCTTGTTGAACTCGGGGTGGACCATGCGGGCCTTGAGCTCCCGGGCCCCCGGCACCTCCCAGCACTTGGTGACTTCAAGTCTAGATTTT (double strand) [PnirJ344]”, for which the binding result under setting [1] was “binds”.
